These are yes or no findings as the source states them, for the method shown. Binding calls can cover weak binding; strength is not graded here. Tags and fused reporters may be left off the sequences shown.
Experiments:
[1] = molecular target: monkey EGFR (monkey); assay: SPR Biacore
[2] = molecular target: rat EGFR (rat); assay: SPR Biacore

Row | Binder | binding [1] | binding [2]
1 | I1-GS10-E4 pegylated, His-tagged (designed binder, 40 kDa branched PEG on the Cys of the C-terminal Cys tail) MGVSDVPRDLEVVAATPTSLLISWSARLKVARYYRITYGETGGNSPVQEFTVPKNVYTATISGLKPGVDYTITVYAVTRFRDYQPISINYRTEIDKGSGSGSGSGSGSGSGSGSGSVSDVPRDLEVVAATPTSLLISWHERDGSRQYYRITYGETGGNSPVQEFTVPGGVRTATISGLKPGVDYTITVYAVTDYFNPTTHEYIYQTTPISINYRTEIDKPCQHHHHHH | binds | binds
2 | E4-GS10-I1 pegylated, His-tagged (designed binder, 40 kDa branched PEG on the Cys of the C-terminal Cys tail) MGVSDVPRDLEVVAATPTSLLISWHERDGSRQYYRITYGETGGNSPVQEFTVPGGVRTATISGLKPGVDYTITVYAVTDYFNPTTHEYIYQTTPISINYRTEIDKGSGSGSGSGSGSGSGSGSGSVSDVPRDLEVVAATPTSLLISWSARLKVARYYRITYGETGGNSPVQEFTVPKNVYTATISGLKPGVDYTITVYAVTRFRDYQPISINYRTEIDKPCQHHHHHH | binds | binds
3 | I1-GS10-E85 pegylated, His-tagged (designed binder, 40 kDa branched PEG on the Cys of the C-terminal Cys tail) MGVSDVPRDLEVVAATPTSLLISWSARLKVARYYRITYGETGGNSPVQEFTVPKNVYTATISGLKPGVDYTITVYAVTRFRDYQPISINYRTEIDKGSGSGSGSGSGSGSGSGSGSVSDVPRDLEVVAATPTSLLISWTQGSTHYQYYRITYGETGGNSPVQEFTVPGMVYTATISGLKPGVDYTITVYAVTDYFDRSTHEYKYRTTPISINYRTEIDKPCQHHHHHH | binds | binds

From patent US20180037631A1
